Test results: patent publication US7238491
No constants are given. Whether binding was seen depends on the method and setting. Some entries that bind do so weakly or less than the wild type.

The chains behind the UniProt entries cited, without tags or fusion partners.
UniProt P19793: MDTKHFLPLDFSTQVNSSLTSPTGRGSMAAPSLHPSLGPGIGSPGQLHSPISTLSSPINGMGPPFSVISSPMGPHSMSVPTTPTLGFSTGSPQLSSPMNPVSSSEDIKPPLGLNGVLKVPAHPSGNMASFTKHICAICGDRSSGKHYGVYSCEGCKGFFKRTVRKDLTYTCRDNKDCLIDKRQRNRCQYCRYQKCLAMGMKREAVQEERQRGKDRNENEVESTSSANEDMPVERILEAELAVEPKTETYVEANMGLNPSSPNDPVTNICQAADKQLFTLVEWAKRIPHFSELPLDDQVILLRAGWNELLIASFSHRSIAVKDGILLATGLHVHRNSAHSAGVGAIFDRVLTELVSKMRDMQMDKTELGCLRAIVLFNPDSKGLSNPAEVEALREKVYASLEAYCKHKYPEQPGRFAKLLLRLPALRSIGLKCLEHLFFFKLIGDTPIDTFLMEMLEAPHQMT

B1: human pregnane X receptor (hPXR), synthesized in vitro (receptor)
chain: LEVRPKESWNHADFVHCEDTESVPGKPSVNADEEVGGPQICRVCGDKATGYHFNVMTCEGCKGFFRRAMKRNARLRCPFRKGACEITRKTRRQCQACRLRKCLESGMKKEMIMSDEAVEERRALIKRKKSERTGTQPLGVQGLTEEQRMMIRELMDAQMKTFDTTFSHFKNFRLPGVLSSGCELPESLQAPSREEAAKWSQVRKDLCSLKVSLQLRGEDGSVWNYKPPADSGGKEIFSLLPHMADMSTYMFKGIISFAKVISYFRDLPIEDQISLLKGAAFELCQLRFNTVFNAETGTWECGRLSYCLEDTAGGFQQLLLEPMLKFHYMLKKLQLHEEEYVLMQAISLFSPDRPGVLQHRVVDQLQEQFAITLKSYIECNRPQPAHRFLFLKIMAMLTELRSINAQHTQRLLRIQDIHPFATPLMQELFGITGS
B2: mouse pregnane X receptor 1 (mPXR1), synthesized in vitro (receptor, UniProt O54915 1-431, looked up)
chain: MRPEESWSRVGLVQCEEADSALEEPINVEEEDGGLQICRVCGDKANGYHFNVMTCEGCKGFFRRAMKRNVRLRCPFRKGTCEITRKTRRQCQACRLRKCLESGMKKEMIMSDAAVEQRRALIKRKKREKIEAPPPGGQGLTEEQQALIQELMDAQMQTFDTTFSHFKDFRLPAVFHSGCELPEFLQASLLEDPATWSQIMKDRVPMKISLQLRGEDGSIWNYQPPSKSDGKEIIPLLPHLADVSTYMFKGVINFAKVISYFRDLPIEDQISLLKGATFEMCILRFNTMFDTETGTWECGRLAYCFEDPNGGFQKLLLDPLMKFHCMLKKLQLHKEEYVLMQAISLFSPDRPGVVQRSVVDQLQERFALTLKAYIECSRPYPAHRFLFLKIMAVLTELRSINAQQTQQLLRIQDSHPFATPLMQELFSSTDG

Columns and labels:
[1] = molecular target: human 9-cis retinoic acid receptor RXR (hRXR), synthesized in vitro (human) (UniProt P19793); test: band shift assay, in vitro translated proteins on radiolabeled CYP3A4 IR6 oligonucleotide; neither protein bound the DNA alone
[2] = molecular target: human 9-cis retinoic acid receptor RXR (hRXR), synthesized in vitro (human) (UniProt P19793); test: band shift assay, in vitro translated proteins on radiolabeled CYP3A4 IR6 oligonucleotide

Binder | binding [1] | binding [2]
B1 | binds | –
B2 | – | binds
